Assay results: the supplement of paper PMC10849652
The list shows a part of the results.

Protein sequences, listed by entry. Tags and fused reporters are not part of them. Lines headed by an entry give the natural chain unless they say otherwise; changes in a name come on top.
UniProt Q5JWF2, whole entry, looked up: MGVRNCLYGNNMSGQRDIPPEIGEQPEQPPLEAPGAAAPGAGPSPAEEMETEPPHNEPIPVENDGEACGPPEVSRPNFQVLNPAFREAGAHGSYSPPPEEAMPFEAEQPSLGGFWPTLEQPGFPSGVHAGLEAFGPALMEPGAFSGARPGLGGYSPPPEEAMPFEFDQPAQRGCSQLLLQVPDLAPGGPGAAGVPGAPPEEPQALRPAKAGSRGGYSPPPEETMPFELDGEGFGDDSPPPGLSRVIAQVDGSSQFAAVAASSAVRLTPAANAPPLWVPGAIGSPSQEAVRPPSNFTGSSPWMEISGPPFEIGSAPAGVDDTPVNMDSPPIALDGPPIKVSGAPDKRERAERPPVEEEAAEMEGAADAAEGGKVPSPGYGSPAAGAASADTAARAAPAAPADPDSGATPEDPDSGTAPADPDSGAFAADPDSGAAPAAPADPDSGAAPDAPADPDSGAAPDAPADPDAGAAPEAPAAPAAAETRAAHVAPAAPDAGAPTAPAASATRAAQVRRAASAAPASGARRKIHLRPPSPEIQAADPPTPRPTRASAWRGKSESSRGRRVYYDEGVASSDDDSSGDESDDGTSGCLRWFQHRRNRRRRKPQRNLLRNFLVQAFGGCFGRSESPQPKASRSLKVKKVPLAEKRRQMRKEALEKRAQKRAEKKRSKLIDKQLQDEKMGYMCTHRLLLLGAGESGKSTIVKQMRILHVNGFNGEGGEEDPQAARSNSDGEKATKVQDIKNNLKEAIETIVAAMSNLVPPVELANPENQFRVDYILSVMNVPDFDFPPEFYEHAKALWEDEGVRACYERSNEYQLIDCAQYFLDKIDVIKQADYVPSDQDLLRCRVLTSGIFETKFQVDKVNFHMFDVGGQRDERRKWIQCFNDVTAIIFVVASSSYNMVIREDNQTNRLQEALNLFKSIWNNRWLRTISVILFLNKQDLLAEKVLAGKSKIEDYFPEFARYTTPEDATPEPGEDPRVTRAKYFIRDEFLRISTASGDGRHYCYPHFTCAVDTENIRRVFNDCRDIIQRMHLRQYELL
UniProt Q5T7V8: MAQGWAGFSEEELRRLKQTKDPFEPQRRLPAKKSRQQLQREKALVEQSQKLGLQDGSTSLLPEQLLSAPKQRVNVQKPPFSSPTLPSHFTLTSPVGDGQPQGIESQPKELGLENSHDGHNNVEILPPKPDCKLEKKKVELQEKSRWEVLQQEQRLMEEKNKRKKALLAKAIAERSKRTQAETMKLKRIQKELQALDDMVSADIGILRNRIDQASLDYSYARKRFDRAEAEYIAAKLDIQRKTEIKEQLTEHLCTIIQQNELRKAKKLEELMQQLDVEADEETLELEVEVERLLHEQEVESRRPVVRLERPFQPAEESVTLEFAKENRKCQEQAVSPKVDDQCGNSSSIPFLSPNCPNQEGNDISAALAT
UniProt Q7Z5G4, whole entry, looked up: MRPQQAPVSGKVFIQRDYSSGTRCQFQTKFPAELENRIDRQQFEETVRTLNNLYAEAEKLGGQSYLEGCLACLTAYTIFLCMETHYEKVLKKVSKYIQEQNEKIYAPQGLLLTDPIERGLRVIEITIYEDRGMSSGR
UniProt O75223: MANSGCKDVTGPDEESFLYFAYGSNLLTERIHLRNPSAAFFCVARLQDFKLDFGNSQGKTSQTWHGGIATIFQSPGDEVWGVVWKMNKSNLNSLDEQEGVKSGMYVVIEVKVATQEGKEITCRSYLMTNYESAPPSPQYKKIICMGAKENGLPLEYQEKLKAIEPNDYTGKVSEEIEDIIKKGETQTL
UniProt P15586: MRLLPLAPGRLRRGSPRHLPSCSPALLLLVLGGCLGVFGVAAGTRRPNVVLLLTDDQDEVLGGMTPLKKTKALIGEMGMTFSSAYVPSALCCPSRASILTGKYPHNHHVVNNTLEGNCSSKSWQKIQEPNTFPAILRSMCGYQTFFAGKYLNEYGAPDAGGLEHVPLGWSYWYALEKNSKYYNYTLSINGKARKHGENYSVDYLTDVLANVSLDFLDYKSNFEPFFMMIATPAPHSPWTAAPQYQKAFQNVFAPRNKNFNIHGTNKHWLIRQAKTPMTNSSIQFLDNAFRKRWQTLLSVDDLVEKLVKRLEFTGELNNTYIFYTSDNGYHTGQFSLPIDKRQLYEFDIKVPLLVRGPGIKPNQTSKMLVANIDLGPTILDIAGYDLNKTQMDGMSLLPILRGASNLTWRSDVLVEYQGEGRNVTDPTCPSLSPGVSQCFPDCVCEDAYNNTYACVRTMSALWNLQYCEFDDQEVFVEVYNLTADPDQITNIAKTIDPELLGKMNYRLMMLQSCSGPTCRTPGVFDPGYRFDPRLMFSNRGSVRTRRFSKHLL
UniProt Q14789: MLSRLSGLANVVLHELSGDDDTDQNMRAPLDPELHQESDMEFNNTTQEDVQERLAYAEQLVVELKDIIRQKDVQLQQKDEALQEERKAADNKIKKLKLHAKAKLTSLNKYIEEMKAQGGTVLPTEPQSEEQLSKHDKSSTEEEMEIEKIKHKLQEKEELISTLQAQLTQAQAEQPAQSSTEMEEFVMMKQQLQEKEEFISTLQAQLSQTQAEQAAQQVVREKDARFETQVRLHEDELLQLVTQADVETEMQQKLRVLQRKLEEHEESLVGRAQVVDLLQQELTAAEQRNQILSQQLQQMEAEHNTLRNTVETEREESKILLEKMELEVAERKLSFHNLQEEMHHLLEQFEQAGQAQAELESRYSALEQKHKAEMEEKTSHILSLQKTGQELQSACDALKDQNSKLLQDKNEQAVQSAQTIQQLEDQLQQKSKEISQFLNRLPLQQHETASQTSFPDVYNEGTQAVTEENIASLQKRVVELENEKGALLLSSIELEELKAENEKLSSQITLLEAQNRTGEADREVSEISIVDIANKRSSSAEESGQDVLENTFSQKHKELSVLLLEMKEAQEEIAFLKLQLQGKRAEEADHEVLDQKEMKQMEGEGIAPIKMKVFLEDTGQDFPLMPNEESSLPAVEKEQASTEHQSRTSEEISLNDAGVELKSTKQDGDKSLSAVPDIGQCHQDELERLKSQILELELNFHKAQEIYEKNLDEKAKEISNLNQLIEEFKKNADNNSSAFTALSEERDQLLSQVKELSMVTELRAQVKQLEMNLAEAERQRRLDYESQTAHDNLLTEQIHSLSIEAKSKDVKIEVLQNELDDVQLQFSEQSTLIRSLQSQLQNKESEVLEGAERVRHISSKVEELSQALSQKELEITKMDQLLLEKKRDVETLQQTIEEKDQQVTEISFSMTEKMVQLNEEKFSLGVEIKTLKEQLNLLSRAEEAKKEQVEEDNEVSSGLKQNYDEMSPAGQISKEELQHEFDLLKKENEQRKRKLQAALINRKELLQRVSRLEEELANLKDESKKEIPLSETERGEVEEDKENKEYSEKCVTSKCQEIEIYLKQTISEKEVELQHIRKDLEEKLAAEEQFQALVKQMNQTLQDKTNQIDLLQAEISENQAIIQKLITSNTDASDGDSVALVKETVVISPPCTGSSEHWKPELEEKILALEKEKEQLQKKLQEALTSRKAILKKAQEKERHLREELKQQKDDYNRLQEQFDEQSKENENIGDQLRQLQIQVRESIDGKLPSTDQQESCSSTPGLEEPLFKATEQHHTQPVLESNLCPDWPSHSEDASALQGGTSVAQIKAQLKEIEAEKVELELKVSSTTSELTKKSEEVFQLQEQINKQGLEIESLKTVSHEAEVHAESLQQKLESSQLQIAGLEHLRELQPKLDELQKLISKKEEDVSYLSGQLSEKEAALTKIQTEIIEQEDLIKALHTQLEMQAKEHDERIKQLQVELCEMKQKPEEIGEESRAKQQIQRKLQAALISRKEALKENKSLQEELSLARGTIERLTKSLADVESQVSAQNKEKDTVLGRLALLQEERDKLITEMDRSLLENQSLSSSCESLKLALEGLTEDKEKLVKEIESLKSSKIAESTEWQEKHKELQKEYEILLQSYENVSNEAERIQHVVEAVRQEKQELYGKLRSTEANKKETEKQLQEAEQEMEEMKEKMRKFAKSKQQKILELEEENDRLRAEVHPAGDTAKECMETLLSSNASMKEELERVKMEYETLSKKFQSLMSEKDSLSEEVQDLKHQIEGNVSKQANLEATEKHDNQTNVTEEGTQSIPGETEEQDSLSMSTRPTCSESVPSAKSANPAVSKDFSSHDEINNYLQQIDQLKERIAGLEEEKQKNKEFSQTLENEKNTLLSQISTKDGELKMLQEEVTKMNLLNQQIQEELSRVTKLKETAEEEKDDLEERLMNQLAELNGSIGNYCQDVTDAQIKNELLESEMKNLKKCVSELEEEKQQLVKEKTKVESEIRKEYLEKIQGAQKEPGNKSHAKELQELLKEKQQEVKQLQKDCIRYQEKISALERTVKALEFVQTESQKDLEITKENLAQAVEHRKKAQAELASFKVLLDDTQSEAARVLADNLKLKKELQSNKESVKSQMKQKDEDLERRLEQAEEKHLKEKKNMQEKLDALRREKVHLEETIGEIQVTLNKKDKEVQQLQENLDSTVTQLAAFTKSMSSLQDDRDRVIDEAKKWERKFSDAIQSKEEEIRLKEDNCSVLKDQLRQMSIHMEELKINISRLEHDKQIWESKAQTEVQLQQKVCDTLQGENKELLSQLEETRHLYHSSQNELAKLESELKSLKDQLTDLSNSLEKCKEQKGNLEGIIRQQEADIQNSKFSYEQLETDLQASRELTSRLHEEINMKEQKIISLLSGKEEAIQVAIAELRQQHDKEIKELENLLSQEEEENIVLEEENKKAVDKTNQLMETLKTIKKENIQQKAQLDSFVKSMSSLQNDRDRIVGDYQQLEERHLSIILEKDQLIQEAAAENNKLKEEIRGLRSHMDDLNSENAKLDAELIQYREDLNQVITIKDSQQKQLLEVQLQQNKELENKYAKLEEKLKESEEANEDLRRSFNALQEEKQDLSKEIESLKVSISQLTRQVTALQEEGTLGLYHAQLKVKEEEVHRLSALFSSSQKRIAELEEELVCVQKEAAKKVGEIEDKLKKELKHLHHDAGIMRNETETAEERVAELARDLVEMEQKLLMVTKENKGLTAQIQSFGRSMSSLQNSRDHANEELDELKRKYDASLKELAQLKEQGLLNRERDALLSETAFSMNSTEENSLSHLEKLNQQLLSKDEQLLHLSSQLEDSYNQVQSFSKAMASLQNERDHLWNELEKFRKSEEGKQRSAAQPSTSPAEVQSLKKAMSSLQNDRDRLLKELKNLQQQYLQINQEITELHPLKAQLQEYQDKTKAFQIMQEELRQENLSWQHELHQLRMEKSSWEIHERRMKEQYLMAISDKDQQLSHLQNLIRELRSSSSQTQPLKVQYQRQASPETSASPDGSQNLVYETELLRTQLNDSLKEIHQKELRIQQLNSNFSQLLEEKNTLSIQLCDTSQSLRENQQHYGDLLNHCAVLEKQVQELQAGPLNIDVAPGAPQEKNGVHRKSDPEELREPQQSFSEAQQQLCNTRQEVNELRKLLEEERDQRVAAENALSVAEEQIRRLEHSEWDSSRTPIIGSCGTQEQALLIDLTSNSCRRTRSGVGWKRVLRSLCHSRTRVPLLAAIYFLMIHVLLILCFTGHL
UniProt P62873, whole entry, looked up: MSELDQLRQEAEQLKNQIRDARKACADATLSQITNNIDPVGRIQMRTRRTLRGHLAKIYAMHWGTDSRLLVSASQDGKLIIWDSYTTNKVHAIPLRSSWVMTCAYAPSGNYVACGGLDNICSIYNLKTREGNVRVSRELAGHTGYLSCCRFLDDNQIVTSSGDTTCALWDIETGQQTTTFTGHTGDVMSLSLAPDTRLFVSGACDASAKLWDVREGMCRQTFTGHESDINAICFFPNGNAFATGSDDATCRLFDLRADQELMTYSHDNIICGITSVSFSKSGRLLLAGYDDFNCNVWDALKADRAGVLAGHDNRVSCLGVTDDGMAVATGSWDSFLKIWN
UniProt Q5T3I0: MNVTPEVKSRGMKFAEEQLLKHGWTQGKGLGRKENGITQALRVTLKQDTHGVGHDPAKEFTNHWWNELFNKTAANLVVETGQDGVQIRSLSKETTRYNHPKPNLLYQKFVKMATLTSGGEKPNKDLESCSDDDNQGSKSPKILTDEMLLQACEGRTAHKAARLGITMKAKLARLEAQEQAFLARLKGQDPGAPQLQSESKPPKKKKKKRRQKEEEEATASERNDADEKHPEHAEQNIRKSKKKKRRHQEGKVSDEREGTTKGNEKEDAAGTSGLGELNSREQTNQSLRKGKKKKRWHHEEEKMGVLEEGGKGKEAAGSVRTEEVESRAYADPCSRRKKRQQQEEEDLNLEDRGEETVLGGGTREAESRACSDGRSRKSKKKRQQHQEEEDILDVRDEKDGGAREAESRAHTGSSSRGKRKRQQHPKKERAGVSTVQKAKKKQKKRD

Experiments:
Experiment in all cases: log2 fold change, soluble protein after heating vs DMSO (PISA); higher = thermal stabilisation; K562 lysate, 10 uM; active = over 0.2 and 3.5 SD of the protein, either way, in both replicates (recomputed)
erlotinib = compound: C#Cc1cccc(Nc2ncnc3cc(OCCOC)c(OCCOC)cc23)c1 [erlotinib]
How it was run: (§1)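 Values give the log-two fold change in thermal stability against solvent controls, from duplicates. Crude K562 extract at 1 mg/mL protein, made by dounce homogenisation in PBS pH 7.4 with 1 mM MgCl2, was treated with 10 μM compound for 30 min. After 3 min heating across 48°C-58°C, aliquots were pooled, adjusted to 0.5% NP-40 at 4°C and centrifuged at 21,000xg for 90 min. The supernatant was measured by TMTpro 16plex LC-MS/MS with channel sums equalised.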

[1] = compound: C/C(=N\NC(=O)C1=CC(=CC=C1)S(=O)(=O)N2CCOCC2)/C3=C(C=CC(=C3)Cl)O
How it was run: as §1

[2] = compound: C1=CC(=CC=C1C2=NC3=C(N2)C=C(C=C3)C(=O)N)OC4=CC=C(C=C4)Cl
How it was run: as §1

[3] = compound: C1=CC2=C(C=CC(=C2)/C=C\3/C(=O)NC(=NCC4=CC=CS4)S3)N=C1
How it was run: as §1

[4] = compound: C1=CC2=NC=CN=C2C=C1/C=C/3\C(=O)NC(=O)S3
How it was run: as §1

[5] = compound: C1=CC=C(C=C1)C2=NC(=C(N2)C3=CC=NC=C3)C4=CC(=C(C=C4)Cl)O
How it was run: as §1

[6] = compound: C1=CC=C2C(=C1)C3=NNC4=CC=CC(=C43)C2=O
How it was run: as §1

[7] = compound: C1CCN(C1)C(=O)NC2=CC=CC(=C2)NC3=NC=C(C(=N3)NCCC4=CN=CN4)Br
How it was run: as §1

[8] = compound: C1CN(CCC1(CC2=CC=C(C=C2)Cl)N)C3=NC=NC4=C3C=CN4
How it was run: as §1

IRAK-1-4 Inhibitor I = compound: C1COCCN1CCN2C3=CC=CC=C3N=C2NC(=O)C4=CC(=CC=C4)[N+](=O)[O-] [IRAK-1-4 Inhibitor I]
How it was run: as §1

ibrutinib = compound: C=CC(=O)N1CCC[C@@H](n2nc(-c3ccc(Oc4ccccc4)cc3)c3c(N)ncnc32)C1 [ibrutinib]
How it was run: as §1

[9] = compound: CC(=O)c1cnc2ccc(-c3cc(Cl)c(O)c(Cl)c3)nc2c1N[C@H]1CC[C@H](CN(C)C)CC1
How it was run: as §1

ralimetinib = compound: CC(C)(C)Cn1c(N)nc2ccc(-c3[nH]c(C(C)(C)C)nc3-c3ccc(F)cc3)nc21 [ralimetinib]
How it was run: as §1

[10] = compound: CC(C)(O)CC(=O)NCCn1ccc2ncnc(Nc3ccc(Oc4cccc(C(F)(F)F)c4)c(Cl)c3)c21
How it was run: as §1

[11] = compound: CC(C)C1=C2N=C(C=C(N2N=C1)NCC3=CC=CC=C3)NCCCCCCN
How it was run: as §1

[12] = compound: CC1=C(C(CC(=O)N1)C2=CC=C(C=C2)C(F)(F)F)C(=O)NC3=C(C=C4C(=C3)C=NN4)F
How it was run: as §1

[13] = compound: CC1=C(C2=C(C=C1)C(=O)C3=CC=CC=C3N2CCCN)C
How it was run: as §1

[14] = compound: CC1=C(C=C(C=C1)NC(=O)C2=CC(=CC=C2)C(C)(C)C#N)NC3=CC4=C(C=C3)N=CN(C4=O)C
How it was run: as §1

[15] = compound: CC1=C(C=C(C=C1)NC(=O)C2=CC(=CC=C2)N(C)C)NC(=O)C3=CC=C(C=C3)O
How it was run: as §1

[16] = compound: CC1=CC=C(C=C1)SC2=C3C=C(SC3=CN=C2)C(=O)N
How it was run: as §1

Measured: log2 fold change

GNAS (UniProt Q5JWF2)
inactive: erlotinib 0.003 | [1] 0.061 | [2] -0.04 | [3] -0.004 | [4] 0.028 | [5] 0.002 | [6] 0.034 | [7] 0.005 | [8] 0.043 | IRAK-1-4 Inhibitor I -0.024 | ibrutinib -0.001 | [9] 0.012 | ralimetinib -0.012 | [10] 0.021 | [11] -0.037 | [12] 0.013 | [13] 0.013 | [14] -0.015 | [15] -0.01 | [16] 0.008

GORAB (UniProt Q5T7V8)
inactive: erlotinib -0.002 | [1] 0.167 | [2] 0.038 | [3] 0.012 | [4] -0.048 | [5] 0.049 | [6] -0.064 | [7] -0.071 | [8] 0.027 | IRAK-1-4 Inhibitor I 0.014 | ibrutinib 0.051 | [9] 0.049 | ralimetinib 0.008 | [10] -0.022 | [11] 0.043 | [12] 0.015 | [13] 0.035 | [14] -0.051 | [15] 0.02 | [16] 0.026

GPAT4 (UniProt Q86UL3)
inactive: erlotinib -0.034 | [1] -0.014 | [2] 0.025 | [3] -0.042 | [4] 0.014 | [5] -0.03 | [6] -0.045 | [7] -0.027 | [8] 0.038 | IRAK-1-4 Inhibitor I 0.014 | ibrutinib 0.008 | [9] -0.013 | ralimetinib -0.017 | [10] 0.024 | [11] -0.032 | [12] -0.009 | [13] 0.015 | [14] -0.023 | [15] 0.014 | [16] -0.029

GNL1 (UniProt P36915)
inactive: erlotinib -0.002 | [1] 0.01 | [2] -0.022 | [3] 0 | [4] -0.025 | [5] 0.007 | [6] -0.039 | [7] 0.012 | [8] -0.012 | IRAK-1-4 Inhibitor I -0.006 | ibrutinib 0.01 | [9] -0.008 | ralimetinib -0.012 | [10] -0.024 | [11] 0.01 | [12] -0.006 | [13] 0.018 | [14] -0.016 | [15] 0.013 | [16] -0.004

GOLGA7 (UniProt Q7Z5G4)
inactive: erlotinib -0.008 | [1] -0.073 | [2] -0.028 | [3] 0.051 | [4] -0.032 | [5] 0.04 | [6] 0.039 | [7] -0.043 | [8] 0.022 | IRAK-1-4 Inhibitor I 0.034 | ibrutinib 0.107 | [9] -0.032 | ralimetinib -0.007 | [10] -0.035 | [11] 0.051 | [12] -0.036 | [13] -0.028 | [14] 0.045 | [15] -0.008 | [16] -0.005

GLS isoform 3 (UniProt O94925)
inactive: erlotinib 0.006 | [1] 0.014 | [2] -0.035 | [3] 0.047 | [4] 0.047 | [5] -0.009 | [6] -0.063 | [7] -0.009 | [8] 0.013 | IRAK-1-4 Inhibitor I 0.007 | ibrutinib -0.039 | [9] -0.017 | ralimetinib 0.028 | [10] 0.024 | [11] 0.098 | [12] 0.007 | [13] 0.046 | [14] 0.011 | [15] 0.028 | [16] -0.034

GNAQ (UniProt P50148)
inactive: erlotinib -0.04 | [1] -0.053 | [2] -0.127 | [3] -0.074 | [4] -0.043 | [5] 0.023 | [6] 0.065 | [7] 0.018 | [8] -0.041 | IRAK-1-4 Inhibitor I 0.037 | ibrutinib -0.033 | [9] 0.051 | ralimetinib -0.022 | [10] -0.108 | [11] -0.058 | [12] -0.084 | [13] 0.036 | [14] 0.045 | [15] 0.082 | [16] -0.012

GOT1 (UniProt P17174)
inactive: erlotinib -0.007 | [1] -0.002 | [2] 0.007 | [3] -0.018 | [4] 0.006 | [5] 0.008 | [6] 0.018 | [7] 0.045 | [8] 0.015 | IRAK-1-4 Inhibitor I 0.022 | ibrutinib 0.004 | [9] 0.01 | ralimetinib -0.009 | [10] -0.005 | [11] -0.006 | [12] -0.032 | [13] -0.002 | [14] 0.019 | [15] -0.021 | [16] -0.016

Reprinted from above (four entries):
GNL1 (UniProt P36915)
inactive: erlotinib -0.002 | [1] 0.01 | [2] -0.022 | [3] 0 | [4] -0.025 | [5] 0.007 | [6] -0.039 | [7] 0.012 | [8] -0.012 | IRAK-1-4 Inhibitor I -0.006 | ibrutinib 0.01 | [9] -0.008 | ralimetinib -0.012 | [10] -0.024 | [11] 0.01 | [12] -0.006 | [13] 0.018 | [14] -0.016 | [15] 0.013 | [16] -0.004

GOLGA7 (UniProt Q7Z5G4)
inactive: erlotinib -0.008 | [1] -0.073 | [2] -0.028 | [3] 0.051 | [4] -0.032 | [5] 0.04 | [6] 0.039 | [7] -0.043 | [8] 0.022 | IRAK-1-4 Inhibitor I 0.034 | ibrutinib 0.107 | [9] -0.032 | ralimetinib -0.007 | [10] -0.035 | [11] 0.051 | [12] -0.036 | [13] -0.028 | [14] 0.045 | [15] -0.008 | [16] -0.005

GLS isoform 3 (UniProt O94925)
inactive: erlotinib 0.006 | [1] 0.014 | [2] -0.035 | [3] 0.047 | [4] 0.047 | [5] -0.009 | [6] -0.063 | [7] -0.009 | [8] 0.013 | IRAK-1-4 Inhibitor I 0.007 | ibrutinib -0.039 | [9] -0.017 | ralimetinib 0.028 | [10] 0.024 | [11] 0.098 | [12] 0.007 | [13] 0.046 | [14] 0.011 | [15] 0.028 | [16] -0.034

GNAQ (UniProt P50148)
inactive: erlotinib -0.04 | [1] -0.053 | [2] -0.127 | [3] -0.074 | [4] -0.043 | [5] 0.023 | [6] 0.065 | [7] 0.018 | [8] -0.041 | IRAK-1-4 Inhibitor I 0.037 | ibrutinib -0.033 | [9] 0.051 | ralimetinib -0.022 | [10] -0.108 | [11] -0.058 | [12] -0.084 | [13] 0.036 | [14] 0.045 | [15] 0.082 | [16] -0.012

Later entries

GGCT (UniProt O75223)
inactive: erlotinib 0.024 | [1] 0.028 | [2] -0.015 | [3] -0.043 | [4] 0.019 | [5] 0.006 | [6] 0.012 | [7] -0.001 | [8] 0.031 | IRAK-1-4 Inhibitor I 0.007 | ibrutinib -0.022 | [9] -0.015 | ralimetinib 0.003 | [10] 0.001 | [11] 0.004 | [12] -0.007 | [13] 0.011 | [14] 0.084 | [15] -0.024 | [16] -0.001

GNS (UniProt P15586)
inactive: erlotinib -0.012 | [1] -0.033 | [2] 0.03 | [3] -0.025 | [4] -0.036 | [5] -0.011 | [6] -0.004 | [7] 0.013 | [8] -0.015 | IRAK-1-4 Inhibitor I -0.016 | ibrutinib 0.008 | [9] -0.011 | ralimetinib 0.029 | [10] 0.027 | [11] -0.005 | [12] 0.007 | [13] 0.03 | [14] -0.021 | [15] 0.019 | [16] -0.009

GORASP2 isoform 3 (UniProt Q9H8Y8)
inactive: erlotinib 0.02 | [1] -0.061 | [2] -0.009 | [3] 0.024 | [4] 0.033 | [5] -0.034 | [6] -0.048 | [7] -0.018 | [8] -0.008 | IRAK-1-4 Inhibitor I 0.007 | ibrutinib 0.058 | [9] 0.019 | ralimetinib 0.034 | [10] -0.055 | [11] -0.003 | [12] 0.021 | [13] 0.009 | [14] -0.017 | [15] -0.011 | [16] 0.022

GOLGB1 (UniProt Q14789)
inactive: erlotinib -0.023 | [1] -0.019 | [2] -0.088 | [3] 0.025 | [4] -0.031 | [5] 0.026 | [6] -0.088 | [7] -0.033 | [8] 0.011 | IRAK-1-4 Inhibitor I -0.005 | ibrutinib 0.006 | [9] -0.003 | ralimetinib 0.011 | [10] -0.012 | [11] 0.002 | [12] -0.005 | [13] -0.025 | [14] -0.007 | [15] 0.013 | [16] -0.002

GNB1 (UniProt P62873)
inactive: erlotinib 0.053 | [1] 0.018 | [2] 0.082 | [3] -0.019 | [4] -0.015 | [5] -0.022 | [6] 0.023 | [7] -0.017 | [8] -0.031 | IRAK-1-4 Inhibitor I 0.012 | ibrutinib 0.018 | [9] -0.018 | ralimetinib -0.036 | [10] 0.057 | [11] 0.003 | [12] -0.052 | [13] 0.076 | [14] 0.145 | [15] -0.076 | [16] -0.011

GPATCH4 isoform 3 (UniProt Q5T3I0)
inactive: erlotinib -0.064 | [1] -0.07 | [2] -0.038 | [3] 0.009 | [4] -0.039 | [5] -0.022 | [6] 0.052 | [7] 0.006 | [8] -0.022 | IRAK-1-4 Inhibitor I -0.008 | ibrutinib -0.024 | [9] 0.036 | ralimetinib 0.038 | [10] 0.099 | [11] 0.021 | [12] 0.039 | [13] -0.007 | [14] 0.166 | [15] -0.004 | [16] 0.072

GPKOW (UniProt Q92917)
inactive: erlotinib -0.011 | [1] 0.009 | [2] 0 | [3] -0.004 | [4] -0.022 | [5] 0.024 | [6] -0.006 | [7] -0.003 | [8] 0.007 | IRAK-1-4 Inhibitor I 0.002 | ibrutinib 0.007 | [9] -0.005 | ralimetinib 0.009 | [10] -0.03 | [11] 0 | [12] 0 | [13] 0.027 | [14] -0.003 | [15] -0.006 | [16] 0.009

GMIP (UniProt Q9P107)
inactive: erlotinib 0.014 | [1] 0.019 | [2] -0.02 | [3] -0.029 | [4] 0.009 | [5] 0.068 | [6] 0.03 | [7] -0.063 | [8] 0.019 | IRAK-1-4 Inhibitor I 0.025 | ibrutinib 0.182 | [9] 0.027 | ralimetinib 0.023 | [10] -0.11 | [11] -0.017 | [12] 0.029 | [13] 0.03 | [14] 0.019 | [15] -0.068 | [16] 0.045
